Data: paper doi:10.1101/2023.09.26.559637
No constants are given. Whether binding was seen depends on the method and setting. Binding seen in cells or lysates may run through a third protein.

By UniProt entry, the sequences of proteins in these tests, tags left out.
UniProt Q13568: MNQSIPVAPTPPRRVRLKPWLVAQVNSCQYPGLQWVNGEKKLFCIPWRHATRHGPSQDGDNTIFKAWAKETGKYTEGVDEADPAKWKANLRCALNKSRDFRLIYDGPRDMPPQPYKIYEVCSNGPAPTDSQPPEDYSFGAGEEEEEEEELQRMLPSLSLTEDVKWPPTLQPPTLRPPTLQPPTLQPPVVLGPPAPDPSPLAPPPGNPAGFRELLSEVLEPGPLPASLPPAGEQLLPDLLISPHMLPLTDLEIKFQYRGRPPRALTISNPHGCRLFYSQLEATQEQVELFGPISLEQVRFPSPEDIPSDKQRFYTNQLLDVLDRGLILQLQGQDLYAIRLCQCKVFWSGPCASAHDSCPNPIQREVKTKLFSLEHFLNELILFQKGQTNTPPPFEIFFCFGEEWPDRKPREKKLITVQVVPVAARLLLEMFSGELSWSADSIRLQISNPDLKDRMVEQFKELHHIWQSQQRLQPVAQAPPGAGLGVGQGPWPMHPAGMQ
UniProt O00506: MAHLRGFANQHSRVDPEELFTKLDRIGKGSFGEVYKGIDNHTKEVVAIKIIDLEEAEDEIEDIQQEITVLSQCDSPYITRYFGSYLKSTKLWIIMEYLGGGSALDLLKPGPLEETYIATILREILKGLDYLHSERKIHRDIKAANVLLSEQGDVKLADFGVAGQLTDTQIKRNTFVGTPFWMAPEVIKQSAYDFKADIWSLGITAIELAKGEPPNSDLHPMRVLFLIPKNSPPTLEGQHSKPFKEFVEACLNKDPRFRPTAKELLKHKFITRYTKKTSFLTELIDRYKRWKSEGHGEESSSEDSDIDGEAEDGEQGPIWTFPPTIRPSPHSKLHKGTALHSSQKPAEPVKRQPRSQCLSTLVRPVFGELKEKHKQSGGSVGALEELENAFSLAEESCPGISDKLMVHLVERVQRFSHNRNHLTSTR

Biological target: interferon regulatory factor 5 (IRF5) (human (endogenous in THP-1 and Ramos)) (UniProt Q13568)
Test: co-IP

With “serine/threonine protein kinase 25 (STK25) (from UniProt O00506 1-426) (enzyme)” the binding was “no binding”.
